Measured values published in US20090226370A1.
No constants are given. Whether binding was seen depends on the method and setting. In cells and extracts the contact can be indirect. Some results given as binding are weak or reduced against the parent protein; the word gives no strength.

By UniProt entry, the sequences of proteins in these tests, tags left out. Residues count along the entry.
UniProt P49747, residues 21-757: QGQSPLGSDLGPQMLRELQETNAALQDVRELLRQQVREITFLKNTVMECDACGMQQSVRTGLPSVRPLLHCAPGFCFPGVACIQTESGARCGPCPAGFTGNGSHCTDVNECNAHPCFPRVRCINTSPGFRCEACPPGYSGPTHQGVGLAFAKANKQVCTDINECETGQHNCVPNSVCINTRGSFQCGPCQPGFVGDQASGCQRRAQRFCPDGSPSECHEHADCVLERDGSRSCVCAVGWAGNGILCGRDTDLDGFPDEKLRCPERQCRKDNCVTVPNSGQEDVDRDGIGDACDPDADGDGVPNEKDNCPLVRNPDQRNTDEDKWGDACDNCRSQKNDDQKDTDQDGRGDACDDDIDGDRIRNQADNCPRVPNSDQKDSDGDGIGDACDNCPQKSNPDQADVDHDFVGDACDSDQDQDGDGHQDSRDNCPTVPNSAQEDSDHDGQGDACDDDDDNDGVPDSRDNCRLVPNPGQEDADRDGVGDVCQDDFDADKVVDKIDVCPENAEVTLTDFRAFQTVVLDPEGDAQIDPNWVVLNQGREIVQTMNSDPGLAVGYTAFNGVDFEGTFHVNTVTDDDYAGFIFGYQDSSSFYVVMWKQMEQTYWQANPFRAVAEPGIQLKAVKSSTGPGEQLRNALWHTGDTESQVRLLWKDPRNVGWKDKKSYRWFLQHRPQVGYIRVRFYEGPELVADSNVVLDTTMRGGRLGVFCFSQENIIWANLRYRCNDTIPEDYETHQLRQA
UniProt P28799, residues 18-593: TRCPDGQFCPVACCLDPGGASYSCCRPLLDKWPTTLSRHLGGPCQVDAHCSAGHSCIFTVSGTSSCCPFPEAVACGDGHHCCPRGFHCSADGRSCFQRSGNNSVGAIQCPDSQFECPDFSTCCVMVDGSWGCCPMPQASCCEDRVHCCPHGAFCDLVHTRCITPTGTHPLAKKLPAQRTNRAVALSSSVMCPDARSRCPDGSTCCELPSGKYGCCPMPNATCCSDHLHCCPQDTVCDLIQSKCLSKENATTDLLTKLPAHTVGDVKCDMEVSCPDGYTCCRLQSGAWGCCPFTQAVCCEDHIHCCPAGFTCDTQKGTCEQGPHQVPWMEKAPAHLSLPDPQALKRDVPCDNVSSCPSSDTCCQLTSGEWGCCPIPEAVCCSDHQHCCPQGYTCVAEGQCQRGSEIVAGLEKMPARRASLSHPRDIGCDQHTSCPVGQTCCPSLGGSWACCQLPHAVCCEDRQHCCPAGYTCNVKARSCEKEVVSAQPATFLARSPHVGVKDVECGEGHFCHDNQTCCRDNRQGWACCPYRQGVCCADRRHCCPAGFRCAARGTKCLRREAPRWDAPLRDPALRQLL

Assays:
[1] = biological target: COMP in cell extracts of isolated human chondrocytes (human) (UniProt P49747); test: co-immunoprecipitation from human chondrocyte extracts, anti-COMP antiserum, immunoblot with anti-GEP
[2] = biological target: COMP in cell extracts of isolated human chondrocytes (human) (UniProt P49747); test: co-immunoprecipitation from human chondrocyte extracts (FIG. 3C)

binding [1]: binds
binding [2]: binds
Substance: GEP in cell extracts of isolated human chondrocytes (from UniProt P28799 18-593) (ligand)
